Source: PubChem BioAssay AID504808 (Drosophila RNAi Screening Center, 2011)

- Aim: 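Fly genes required to hold E2F transcription in check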 (primary screen)
- Cells: Drosophila S2 cells
- Knock-down reagent: long dsRNA against Drosophila genes
- Read-out: 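Firefly luciferase driven by E2F sites, normalised to Renilla luciferase on the same minimal promoter, measured by plate reader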
- Direction: E2F firefly: higher = more E2F reporter activity; Renilla normaliser: higher = more normaliser reporter signal
- Rule for the call: 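a knock-down counted as active when the firefly/Renilla E2F signal rose above 50%, a threshold chosen arbitrarily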
The deposit covers about 21,000 reagents; below is an unselected part of those that have a named target and a result. Over the whole deposit, 18 (0.084%) are marked active. 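Raw counts without plate normalisation, one of two replicates; the ratio scores behind the calls were not deposited.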 Not given: the amount of reagent, the time to read-out.

CG10205 [DRSC05979] → E2F firefly, rep 1 = 77850; Renilla normaliser, rep 1 = 4419; outcome = inactive
CG1835 [DRSC20560] → E2F firefly, rep 1 = 1.41e5; Renilla normaliser, rep 1 = 6188; outcome = inactive
RpS16 (Ribosomal protein S16) [DRSC04442] → E2F firefly, rep 1 = 93426; Renilla normaliser, rep 1 = 4960; outcome = inactive
CG15458 [DRSC20529] → E2F firefly, rep 1 = 1.39e5; Renilla normaliser, rep 1 = 6821; outcome = inactive
CG18628 [DRSC10328] → E2F firefly, rep 1 = 77992; Renilla normaliser, rep 1 = 3491; outcome = inactive
Or13a (Odorant receptor 13a) [DRSC20265] → E2F firefly, rep 1 = 2.35e5; Renilla normaliser, rep 1 = 6864; outcome = inactive
CG5973 [DRSC02918] → E2F firefly, rep 1 = 85876; Renilla normaliser, rep 1 = 3878; outcome = inactive
MED21 (Mediator complex subunit 21) [DRSC20932] → E2F firefly, rep 1 = 1.32e5; Renilla normaliser, rep 1 = 6213; outcome = inactive
kappaTry [DRSC06146] → E2F firefly, rep 1 = 1.01e5; Renilla normaliser, rep 1 = 4327; outcome = inactive
CG10934 [DRSC06017] → E2F firefly, rep 1 = 69358; Renilla normaliser, rep 1 = 3129; outcome = inactive
CG9101 [DRSC20152] → E2F firefly, rep 1 = 1.54e5; Renilla normaliser, rep 1 = 7966; outcome = inactive
CG33655 [DRSC03858] → E2F firefly, rep 1 = 1.10e5; Renilla normaliser, rep 1 = 3904; outcome = inactive

Individual results from above.
Value for CG9101 [DRSC20152] in “E2F firefly, rep 1”: 1.54e5
kappaTry [DRSC06146], Renilla normaliser, rep 1: 4327
